About 610 (0.16%) of roughly 390,000 compounds were called active. Inconclusive results, whose numbers are uncertain, are shown with a selection of clear calls. The call rests on the fitted dose curve; in most records, active means well fitted inhibition curve with a large enough effect; inconclusive means small, poorly fitted or top-dose-only effect, or effect the other way, or another doubt; inactive means no such curve, though single readings can be large or run the other way. A potency beside an inconclusive call is a rough fit, not a confirmed value.
Assay: Nrf2 qHTS screen for inhibitors: counterscreen for cytotoxicity
Settings: A549 ARE-Fluc cells, CellTiter-Fluor viability, 18-24 h; activity change, negative = cytotoxicity: at 46 µM (top of the series)
Outline: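 A549 ARE-Fluc cells in 5% FBS OPTI-MEM, 5000 cells/well, rested 2 h then exposed to compounds in concentration-response for 18-24 h at 37 °C. Viability by CellTiter-Fluor fluorescence (Ex 405/Em 525) after 30 min; luciferase luminescence (BugLite, 15 min, RT) read afterwards.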
With CCOC(=O)/C(=N\Nc1ccc(OC)cc1)c1csc(Nc2ccccc2)n1 the Potency was inconclusive: 29.1 µM [falling, partial curve, poor fit]. With O=C(/C=C/c1ccccc1)NC(NC(=S)Nc1ccc(Cl)cc1)C(Cl)(Cl)Cl (configuration not stated) the Potency was inconclusive: 13 µM [falling, partial curve]. For CCOC(=O)c1cc(C)n(CC2CCC(C(=O)Nc3ccc(Cl)cc3)CC2)c1C (configuration not stated), the Potency was inconclusive: 29.1 µM [falling, single point]. For CCCc1nc(C)c2c(=O)[nH]c(-c3cc(S(=O)(=O)N4CCN(CC)CC4)ccc3OCC)nn12, the “activity change, negative = cytotoxicity” value was inactive: -2.81%. For COC(=O)C1=CN(c2cccc(C)c2)C=C(C(=O)OC)C1c1cc(OC)c(O)c([N+](=O)[O-])c1, the Potency was inconclusive: 18.4 µM [falling, single point]. With COc1ccc(/C=N\NC(=O)c2ccccc2F)cc1COc1ccc(F)cc1F the Potency was inconclusive: 7.31 µM [falling, partial curve, poor fit]. In the case of C[n+]1ccc(/C=C/c2ccccc2O)c2ccccc21, the “activity change, negative = cytotoxicity” value is reported as inactive: -17.4%. In the case of Cc1cc(N2CCCCC2)nc2ccc(NC(=O)/C=C/c3ccccc3OC(C)C)cc12, the “activity change, negative = cytotoxicity” value is reported as inactive: -14.8%. With O=C(COc1ccc(S(=O)(=O)NC2CCCCC2)cc1)Nc1ccc(C(F)(F)F)cc1 the “activity change, negative = cytotoxicity” value was inactive: -6.92%. With N#C/C(=C/C1=C(N2CCOCC2)C(=C/c2ccccc2)/CC1)C(=O)Nc1ccccc1F the Potency was inconclusive: 5.8 µM [falling, partial curve, poor fit]. For O=C(Cc1cccc([N+](=O)[O-])c1)NCc1nc2cccnc2n1Cc1ccc(F)cc1, the “activity change, negative = cytotoxicity” value was inactive: 4.18%. For Cc1cc(NC(=O)COC(=O)C2CC(=O)N(c3ccc(Br)cc3)C2)no1 (configuration not stated), the Potency was inconclusive: 32.6 µM [falling, partial curve, poor fit]. For Cc1cc(C)c(S(=O)(=O)c2ccccc2)c(Cl)n1, the “activity change, negative = cytotoxicity” value was inactive: -0.564%. For CN(C)c1ccc(C=c2c3cc([N+](=O)[O-])ccc3n3c2cc(-c2ccccc2)[n+]3C)cc1, the Potency was inconclusive: 18.4 µM [falling, single point]. In the case of CCOC(=O)c1cnc2c(N=Nc3ccccc3)c(N)nn2c1N, the Potency is reported as inconclusive: 32.6 µM [falling, partial curve, poor fit]. For CC1(c2nnc(Cc3ccccc3)o2)CC(c2ccccc2)=NO1 (configuration not stated), the “activity change, negative = cytotoxicity” value was inactive: 6.46%. For Cn1nnnc1Sc1ncnc2scc(-c3ccccc3C#N)c12, the “activity change, negative = cytotoxicity” value was inactive: -8.42%. With Cc1ccc2c(c1)C1NC(=S)NC(C)(O2)C1C(=O)Nc1ccc(Cl)cc1 (configuration not stated) the “activity change, negative = cytotoxicity” value was inactive: 9.6%. With CCOC(=O)c1c(NC(=O)CSc2nnc(-c3c[nH]c4ccccc34)n2CCOC)sc2c1CCCCC2 the Potency was inconclusive: 16.4 µM [falling, partial curve, poor fit]. In the case of C/C(=N/NC(=O)c1nnn(-c2nonc2N)c1COc1ccccc1)c1ccccc1, the Potency is reported as inconclusive: 6.51 µM [activator, single point]. For Cc1cc(N2C(=O)C(O)=C(C(=O)c3ccc(C)o3)C2c2cccs2)no1 (configuration not stated), the Potency was inconclusive: 20.6 µM [falling, single point]. With COCC(=O)Nc1nc2ccc(C)cc2s1 the “activity change, negative = cytotoxicity” value was inactive: 0.337%. With O=C(CN1CCCCC1)N/N=C/c1ccc(Cl)cc1 the Potency was inconclusive: 2.91 µM [activator, single point]. In the case of Cc1cccc(OCC(=O)Nc2ccc3c(c2)nc(CCN2CCC(C)CC2)n3C)c1, the Potency is reported as inconclusive: 18.4 µM [falling, partial curve]. For COc1ccc(NC(=O)CN(C)C(=O)c2cccc(S(=O)(=O)N3CCN(c4ccc(F)cc4)CC3)c2)cc1, the Potency was inconclusive: 7.31 µM [falling, partial curve, poor fit]. For CN(C)/C=C/C(=O)/C=C/c1ccc(Cl)cc1, the Potency was inconclusive: 7.31 µM [falling, partial curve, poor fit]. With CC(C)Cn1nc(C(=O)OCC(=O)NCC(F)(F)F)c2ccccc2c1=O the Potency was inconclusive: 2.91 µM [activator, full curve, poor fit]. For COc1ccc(Cn2c(SCC(N)=O)nc3c(sc4ccccc43)c2=O)cc1, the Potency was inconclusive: 20.6 µM [falling, partial curve, poor fit]. For Oc1ccc(/C=N/Nc2ncnc3nc[nH]c23)cc1, the “activity change, negative = cytotoxicity” value was inactive: 16.3%. With O=C1CC(N(CCc2ccccc2)C(=S)Nc2ccccc2)C(=O)N1c1ccc(Br)cc1 (configuration not stated) the Potency was inconclusive: 29.1 µM [falling, single point]. For CCCCNc1c(-c2ccc(OC)c(SC3CCCCC3)c2)nc2ccc(C)cn12, the Potency was inconclusive: 25.9 µM [falling, single point]. In the case of CNc1cnn(-c2ccccc2)c(=O)c1Cl, the “activity change, negative = cytotoxicity” value is reported as inactive: -0.669%. In the case of COc1ccccc1NS(=O)(=O)c1cc([N+](=O)[O-])ccc1N/N=C/c1c(C)[nH]c2ccccc12, the Potency is reported as inconclusive: 3.26 µM [falling, partial curve, poor fit]. With COc1ccc(CCN(C)C(=O)COc2ccc(C(=O)c3ccccc3)cc2)cc1OC the “activity change, negative = cytotoxicity” value was inactive: -11%. With COc1ccc2nc3sc(C(=O)NCCCN4CCc5ccccc5C4)cc3cc2c1 the Potency was inconclusive: 29.1 µM [falling, single point]. In the case of O=C(CCC1N=C2c3ccccc3N=C(SCc3ccc(Cl)cc3)N2C1=O)NCc1ccco1 (configuration not stated), the Potency is reported as inconclusive: 25.9 µM [falling, single point]. In the case of O=C(COC(=O)c1ccccc1C(=O)c1ccc(Cl)cc1)NC(c1ccccc1)c1ccccc1, the Potency is reported as inconclusive: 11.6 µM [falling, partial curve, poor fit]. In the case of O=C(Cn1c(=O)n(-c2ccc(Cl)cc2)c(=O)c2oc3ccccc3c21)Nc1ccccc1, the “activity change, negative = cytotoxicity” value is reported as inactive: -0.63%. For COc1ccc(S(=O)(=O)Nc2cccc3cccnc23)c([N+](=O)[O-])c1, the Potency was inconclusive: 29.1 µM [falling, partial curve, poor fit]. In the case of Cc1ccc(S(=O)(=O)C(C#N)c2nc3ccccc3nc2N2CCN(C)CC2)cc1 (configuration not stated), the “activity change, negative = cytotoxicity” value is reported as inactive: -15.1%. For CCOC(=O)C1=CN(Cc2cccc(F)c2)S(=O)(=O)NC1c1ccc2ccccc2c1 (configuration not stated), the “activity change, negative = cytotoxicity” value was inactive: -7.21%. With CC(C)(C)c1ccc(-c2cc(C(=O)NNC(=O)Nc3ccccc3)c3ccccc3n2)cc1 the Potency was inconclusive: 29.1 µM [falling, single point].

From PubChem BioAssay AID504648 (National Center for Advancing Translational Sciences (NCATS), 2011)
On the % scale 0 is the no-effect control and ±100 the full control effect; potency means the concentration at half of the fitted maximal effect.
